No constants are given. Whether binding was seen depends on the method and setting. Some results given as binding are weak or reduced against the parent protein; the word gives no strength.
Legend:
[1] = biological target: complex of EGF and sEGFR-MMB (human) (UniProt P01133); assay: phage ELISA, coated sEGFR-MMB with EGF added
[2] = biological target: sEGFR-MMB (dimeric sEGFR mimetibody) (human); assay: phage ELISA, coated sEGFR-MMB
[3] = biological target: Human extracellular EGFR-His6 (sEGFR-His6) (human) (UniProt P00533); assay: phage ELISA, coated sEGFR-His6
[4] = biological target: sEGFR-MMB (dimeric sEGFR mimetibody) (human); assay: phage ELISA, sEGFR-MMB passively coated
[5] = biological target: biotinylated sEGFR-MMB (human); assay: phage ELISA, biotinylated sEGFR-MMB captured on streptavidin
[6] = biological target: biotinylated sEGFR-His6 (human) (UniProt P00533); assay: phage ELISA; biotinylated receptor captured on streptavidin [panel C]
[7] = biological target: biotinylated sEGFR-MMB (human); assay: as above
[8] = biological target: sEGFR-MMB (dimeric sEGFR mimetibody) (human); assay: competitive phage ELISA on coated sEGFR-MMB; competitor cetuximab (10 ug/ml by paragraph 159) [panel E]
[9] = biological target: sEGFR-MMB (dimeric sEGFR mimetibody) (human); assay: competitive phage ELISA on coated sEGFR-MMB; competitor EGF (10 ug/ml by paragraph 159) [panel B]
[10] = biological target: sEGFR-MMB (dimeric sEGFR mimetibody) (human); assay: competitive phage ELISA on coated sEGFR-MMB; competitor TGF-alpha (10 ug/ml by paragraph 159) [panel D]
[11] = biological target: biotinylated sEGFR-His6 (human) (UniProt P00533); assay: phage ELISA
[12] = biological target: sEGFR-MMB (dimeric sEGFR mimetibody) (human); assay: phage ELISA
[13] = biological target: biotinylated sEGFR-His6 (human) (UniProt P00533); assay: phage ELISA, biotinylated sEGFR-His6 captured on streptavidin
[14] = biological target: sEGFR-MMB (dimeric sEGFR mimetibody) (human); assay: phage ELISA on coated sEGFR-MMB, Control-MMB as control coat [panel A]
[15] = biological target: sEGFR-MMB (dimeric sEGFR mimetibody) (human); assay: ELISA on immobilized sEGFR-MMB, linear concentration axis
[16] = biological target: biotinylated sEGFR-His6 (human) (UniProt P00533); assay: phage ELISA, biotinylated receptor on streptavidin (FIG. 6)
[17] = biological target: biotinylated strepII-tagged sEGFR (human) (UniProt P00533); assay: as above
[18] = biological target: biotinylated sEGFR-MMB (human); assay: as above
[19] = biological target: sEGFR-MMB (dimeric sEGFR mimetibody) (human); assay: phage ELISA on coated sEGFR-MMB
[20] = biological target: biotinylated sEGFR-His6 (human) (UniProt P00533); assay: phage ELISA, biotinylated sEGFR-His6 on streptavidin
[21] = biological target: sEGFR-MMB (dimeric sEGFR mimetibody) (human); assay: phage ELISA on coated sEGFR-MMB; EGF 10 ug/ml as competitor in the second bar
[22] = biological target: biotinylated sEGFR-His6 (human) (UniProt P00533); assay: phage ELISA; biotinylated receptor captured on streptavidin-coated wells
[23] = biological target: biotinylated strepII-tagged sEGFR (human) (UniProt P00533); assay: as above
[24] = biological target: biotinylated sEGFR-MMB (human); assay: as above
[25] = biological target: sEGFR-MMB (dimeric sEGFR mimetibody) (human); assay: phage ELISA with or without EGF 10 ug/ml (FIG. 5)
[26] = biological target: complex of EGF and sEGFR-MMB (human) (UniProt P01133); assay: phage ELISA, coated sEGFR-MMB with EGF

Amino acid sequences for entries named in this document (tags omitted). A change or cut given only in a name is not applied to a line headed by its entry.
UniProt P01133: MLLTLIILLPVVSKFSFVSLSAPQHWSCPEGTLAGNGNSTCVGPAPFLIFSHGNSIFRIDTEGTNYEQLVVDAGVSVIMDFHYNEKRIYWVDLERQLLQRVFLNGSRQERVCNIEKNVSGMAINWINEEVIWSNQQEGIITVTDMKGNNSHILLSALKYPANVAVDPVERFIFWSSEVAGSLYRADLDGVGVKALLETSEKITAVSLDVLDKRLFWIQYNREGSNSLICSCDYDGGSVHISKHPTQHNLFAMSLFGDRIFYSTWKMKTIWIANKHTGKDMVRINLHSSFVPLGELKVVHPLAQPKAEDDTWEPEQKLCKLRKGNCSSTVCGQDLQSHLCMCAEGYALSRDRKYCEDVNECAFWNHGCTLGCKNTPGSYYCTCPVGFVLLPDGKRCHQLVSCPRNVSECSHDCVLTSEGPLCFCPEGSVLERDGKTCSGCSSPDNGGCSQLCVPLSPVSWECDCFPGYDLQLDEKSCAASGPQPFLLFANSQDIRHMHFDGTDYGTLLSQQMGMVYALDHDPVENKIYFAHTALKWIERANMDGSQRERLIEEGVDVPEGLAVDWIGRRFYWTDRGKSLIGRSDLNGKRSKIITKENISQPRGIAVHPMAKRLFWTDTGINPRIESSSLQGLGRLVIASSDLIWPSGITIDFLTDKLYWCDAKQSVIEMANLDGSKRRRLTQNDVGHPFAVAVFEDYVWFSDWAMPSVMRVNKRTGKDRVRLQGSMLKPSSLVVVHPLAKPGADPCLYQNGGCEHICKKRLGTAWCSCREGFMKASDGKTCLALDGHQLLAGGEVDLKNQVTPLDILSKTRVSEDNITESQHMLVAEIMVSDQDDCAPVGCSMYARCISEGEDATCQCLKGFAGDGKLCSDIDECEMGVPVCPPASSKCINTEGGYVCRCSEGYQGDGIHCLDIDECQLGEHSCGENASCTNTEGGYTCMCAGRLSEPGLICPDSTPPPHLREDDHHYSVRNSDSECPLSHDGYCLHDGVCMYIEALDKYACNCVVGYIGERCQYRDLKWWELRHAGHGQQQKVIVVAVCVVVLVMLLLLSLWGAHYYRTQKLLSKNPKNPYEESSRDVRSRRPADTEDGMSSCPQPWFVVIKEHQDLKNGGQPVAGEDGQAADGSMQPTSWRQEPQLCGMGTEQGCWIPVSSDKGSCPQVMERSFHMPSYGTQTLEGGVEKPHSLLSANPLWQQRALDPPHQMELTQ

Measured: binding

AGAASRALWAFNSDGG (peptide, not shown: large carriers) [phage clone P192 (SEQ ID NO: 57)]
binds: [1]

GGGMFCFRWYAGWSCVSGGGSGGSGG (peptide, not shown: large carriers) [phage clone P189 (SEQ ID NO: 54)]
binds: [2] | [3]

GGGTDCVIFGLETYCLRGGGSGGSGG (peptide, not shown: large carriers) [phage clone P173 (SEQ ID NO: 31)]
binds: [4] | [2] | [5] | [1]

AGHFYPTKTPGYGG (peptide, not shown: large carriers) [phage clone P191 (SEQ ID NO: 56)]
binds: [1]

GGGKTCVSTTFDLWFVCFAGGGSGGSGG (peptide, not shown: large carriers) [phage clone P176 (SEQ ID NO: 48)]
binds: [6] | [7] | [8] | [4] | [9] | [10] | [11] | [12] | [5] | [13] | [14]

AGSYYWGYTVDIRRGG (peptide, not shown: large carriers) [phage clone P193 (SEQ ID NO: 58)]
binds: [2] | [1]

GGGLPDDSLPELICKVRGGGGSGGSGG (peptide, not shown: large carriers) [phage clone P175 (SEQ ID NO: 13)]
binds: [7] | [8] | [4] | [9] | [10] | [12] | [5] | [14]

B1: P190-MMB construct 4314 (Fc fusion)
chain: GGDPCTWEVWGRECLQGGGSCPPCPAPEAAGGPSVFLFPPKPKDTLMISRTPEVTCVVVDVSQEDPEVQFNWYVDGVEVHNAKTKPREEQFNSTYRVVSVLTVLHQDWLNGKEYKCKVSNKGLPSSIEKTISKAKGQPREPQVYTLPPSQEEMTKNQVSLTCLVKGFYPSDIAVEWESNGQPENNYKTTPPVLDSDGSFFLYSRLTVDKSRWQEGNVFSCSVMHEALHNHYTQKSLSLSLGK
binds: [15]

AGVLCSNFYHPLCHSGG (peptide, not shown: large carriers) [phage clone P143 (SEQ ID NO: 6)]
binds: [16] | [17] | [18] | [19] | [20] | [21] | [22] | [23] | [24] | [25]

GGGSGCLDALWQCVYGGGSGGSGG (peptide, not shown: large carriers) [phage clone P174 (SEQ ID NO: 51)]
binds: [6] | [7] | [8] | [4] | [9] | [10] | [11] | [12] | [5] | [13] | [14]

AGSECFPLAPDWLSCILGG (peptide, not shown: large carriers) [phage clone P194 (SEQ ID NO: 59)]
binds: [2] | [3]

AGTLCRSFFHPLCYAGG (peptide, not shown: large carriers) [phage clone P146 (SEQ ID NO: 8)]
binds: [16] | [17] | [18] | [19] | [20] | [21] | [22] | [23] | [24] | [25]

AGVLCHRYYHPICYTGG (peptide, not shown: large carriers) [phage clone P145 (SEQ ID NO: 7)]
binds: [4] | [16] | [17] | [18] | [19] | [20] | [5] | [21] | [22] | [23] | [24] | [13] | [25]

GGGDPCTWEVWGRECLQGGGSGGSGG (peptide, not shown: large carriers) [phage displaying P190 on pIX (SEQ ID NO: 55)]
binds: [26] | [1]

From patent US20120213844A1
